The target in assay [1] is T1, Myc-tagged PCDH19 (Protocadherin 19) (UniProt Q8TAB3).
T1 sequence: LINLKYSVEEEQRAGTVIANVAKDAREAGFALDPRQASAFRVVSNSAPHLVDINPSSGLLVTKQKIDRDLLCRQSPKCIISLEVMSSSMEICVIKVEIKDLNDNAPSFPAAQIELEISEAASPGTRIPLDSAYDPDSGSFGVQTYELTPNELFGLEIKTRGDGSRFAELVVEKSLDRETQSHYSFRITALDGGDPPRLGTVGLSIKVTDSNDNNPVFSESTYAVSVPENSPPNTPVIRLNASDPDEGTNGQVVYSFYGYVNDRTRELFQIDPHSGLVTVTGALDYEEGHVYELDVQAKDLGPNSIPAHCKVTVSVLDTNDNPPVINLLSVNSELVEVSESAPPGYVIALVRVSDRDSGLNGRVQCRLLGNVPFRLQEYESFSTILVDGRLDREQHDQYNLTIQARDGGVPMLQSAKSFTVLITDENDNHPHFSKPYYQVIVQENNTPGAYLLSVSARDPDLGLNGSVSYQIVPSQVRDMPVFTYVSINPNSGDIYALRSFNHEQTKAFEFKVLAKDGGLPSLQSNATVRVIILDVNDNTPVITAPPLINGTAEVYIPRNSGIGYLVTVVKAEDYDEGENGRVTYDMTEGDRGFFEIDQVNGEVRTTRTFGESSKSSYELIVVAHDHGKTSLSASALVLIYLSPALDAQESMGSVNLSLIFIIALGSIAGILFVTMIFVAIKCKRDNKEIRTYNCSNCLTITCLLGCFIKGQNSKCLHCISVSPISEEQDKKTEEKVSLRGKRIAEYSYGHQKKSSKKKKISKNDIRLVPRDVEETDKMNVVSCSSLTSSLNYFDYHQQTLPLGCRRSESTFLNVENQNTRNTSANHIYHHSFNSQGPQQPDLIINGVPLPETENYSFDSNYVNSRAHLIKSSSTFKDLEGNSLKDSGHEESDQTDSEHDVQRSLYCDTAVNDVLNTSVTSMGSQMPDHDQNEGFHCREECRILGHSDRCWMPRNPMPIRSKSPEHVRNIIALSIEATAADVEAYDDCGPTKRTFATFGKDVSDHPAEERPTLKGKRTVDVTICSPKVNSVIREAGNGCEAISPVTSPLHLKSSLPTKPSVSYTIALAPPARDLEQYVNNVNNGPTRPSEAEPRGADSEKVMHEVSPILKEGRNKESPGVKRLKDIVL
Kind of assay: co-IP; lysates of transfected HEK293T cells; Myc-PCDH19 immunoprecipitated with anti-Myc magnetic beads overnight at 4 °C in IP Buffer; blotted for Myc-PCDH19 and FLAG-AR.

Amino acid sequences for entries named in this document (tags omitted).
UniProt P10275: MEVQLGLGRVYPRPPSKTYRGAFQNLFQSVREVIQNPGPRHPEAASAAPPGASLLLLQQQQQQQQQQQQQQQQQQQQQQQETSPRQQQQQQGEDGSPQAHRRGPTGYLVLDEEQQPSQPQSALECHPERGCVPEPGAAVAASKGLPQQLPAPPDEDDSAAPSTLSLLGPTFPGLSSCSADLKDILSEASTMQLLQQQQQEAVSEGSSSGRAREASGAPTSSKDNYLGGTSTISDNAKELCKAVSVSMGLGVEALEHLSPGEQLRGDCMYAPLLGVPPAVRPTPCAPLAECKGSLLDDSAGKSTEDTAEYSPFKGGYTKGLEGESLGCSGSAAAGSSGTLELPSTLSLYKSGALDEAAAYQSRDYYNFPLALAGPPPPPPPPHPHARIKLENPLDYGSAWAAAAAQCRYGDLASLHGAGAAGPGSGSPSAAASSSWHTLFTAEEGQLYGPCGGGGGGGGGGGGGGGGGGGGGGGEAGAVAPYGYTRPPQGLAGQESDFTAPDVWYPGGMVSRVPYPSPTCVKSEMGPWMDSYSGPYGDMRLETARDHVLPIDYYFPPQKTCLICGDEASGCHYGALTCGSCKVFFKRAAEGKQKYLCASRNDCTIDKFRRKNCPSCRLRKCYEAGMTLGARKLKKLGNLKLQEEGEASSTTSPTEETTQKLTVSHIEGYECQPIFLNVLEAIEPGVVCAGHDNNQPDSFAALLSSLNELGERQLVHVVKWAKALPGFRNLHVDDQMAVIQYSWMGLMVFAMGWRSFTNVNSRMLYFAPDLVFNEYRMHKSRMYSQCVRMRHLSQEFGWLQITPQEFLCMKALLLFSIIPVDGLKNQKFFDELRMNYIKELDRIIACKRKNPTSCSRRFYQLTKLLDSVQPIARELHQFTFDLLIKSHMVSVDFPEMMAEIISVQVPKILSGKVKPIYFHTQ

For assay [2], the target named is FLAG-tagged Androgen Receptor (UniProt P10275). Kind of assay: co-IP; lysates of transfected HEK293T cells; FLAG-AR immunoprecipitated with anti-FLAG agarose beads overnight at 4 °C in IP Buffer; blotted for FLAG-AR, HA-PCDH10 and HA-PCDH12.

Results are given in words; binding and its absence hold for the method and conditions named. In cells and extracts the contact can be indirect. Some binding calls cover weakened binding; strength is not graded here. Tags and fused reporters may be left off the sequences shown.

With “FLAG-tagged Androgen Receptor (from UniProt P10275 1-920)”, the binding entry in assay [1] is recorded as “binds”.

B1: HA-tagged PCDH10 (protein, UniProt Q9P2E7 19-1040)
chain: QLHYTVQEEQEHGTFVGNIAEDLGLDITKLSARGFQTVPNSRTPYLDLNLETGVLYVNEKIDREQICKQSPSCVLHLEVFLENPLELFQVEIEVLDINDNPPSFPEPDLTVEISESATPGTRFPLESAFDPDVGTNSLRDYEITPNSYFSLDVQTQGDGNRFAELVLEKPLDREQQAVHRYVLTAVDGGGGGGVGEGGGGGGGAGLPPQQQRTGTALLTIRVLDSNDNVPAFDQPVYTVSLPENSPPGTLVIQLNATDPDEGQNGEVVYSFSSHISPRARELFGLSPRTGRLEVSGELDYEESPVYQVYVQAKDLGPNAVPAHCKVLVRVLDANDNAPEISFSTVKEAVSEGAAPGTVVALFSVTDRDSEENGQVQCELLGDVPFRLKSSFKNYYTIVTEAPLDREAGDSYTLTVVARDRGEPALSTSKSIQVQVSDVNDNAPRFSQPVYDVYVTENNVPGAYIYAVSATDRDEGANAQLAYSILECQIQGMSVFTYVSINSENGYLYALRSFDYEQLKDFSFQVEARDAGSPQALAGNATVNILIVDQNDNAPAIVAPLPGRNGTPAREVLPRSAEPGYLLTRVAAVDADDGENARLTYSIVRGNEMNLFRMDWRTGELRTARRVPAKRDPQRPYELVIEVRDHGQPPLSSTATLVVQLVDGAVEPQGGGGSGGGGSGEHQRPSRSGGGETSLDLTLILIIALGSVSFIFLLAMIVLAVRCQKEKKLNIYTCLASDCCLCCCCCGGGGSTCCGRQARARKKKLSKSDIMLVQSSNVPSNPAQVPIEESGGFGSHHHNQNYCYQVCLTPESAKTDLMFLKPCSPSRSTDTEHNPCGAIVTGYTDQQPDIISNGSILSNETKHQRAELSYLVDRPRRVNSSAFQEADIVSSKDSGHGDSEQGDSDHDATNRAQSAGMDLFSNCTEECKALGHSDRCWMPSFVPSDGRQAADYRSNLHVPGMDSVPDTEVFETPEAQPGAERSFSTFGKEKALHSTLERKELDGLLTNTRAPYKPPYLTRKRIC
Turning to B1, in assay [2], the binding entry is “binds”.

The values above are taken from article PMC10821879.
